Reference: PubChem BioAssay AID504444 (National Center for Advancing Translational Sciences (NCATS), 2011)
The whole screen tested about 360,000 compounds, of which about 7,500 (2.1%) were called active. Inconclusive means that the source gave no clear call. Such entries were picked first, then a sample of the others. The call rests on the fitted dose curve; in most records, active means well fitted inhibition curve with a large enough effect; inconclusive means small, poorly fitted or top-dose-only effect, or effect the other way; inactive means flat fitted curve, though single readings scatter. Potencies beside an inconclusive call are fits to weak or partial responses and may not hold up.

Test: Nrf2 qHTS screen for inhibitors; further: nearly all actives have a fitted effect of over 60% in size
Conditions: A549 ARE-Fluc reporter, luciferase luminescence, 18-24 h; activity change, negative = inhibition: at 46 µM (top of the series)
Outline: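 Cells were seeded and rested 2 h, then exposed to compounds for 18-24 h. CellTiter-Fluor was read first as a viability measure. BugLite was added 15 min before the final luminescent read of ARE-luciferase activity in A549 cells.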
On the % scale 0 is the no-effect control and ±100 the full control effect; potency means the concentration at half of the fitted maximal effect.

SMILES	Potency	activity change, negative = inhibition
Cc1ccc(C(=O)CCC2CCCCC2=O)cc1 (stereo unspecified)	inconclusive: 7.31 µM [activator, partial curve]	
CC1Cc2nc(SCC(=O)Nc3ccc4c(c3)OCO4)n(Cc3ccccc3)c(=O)c2S1 (stereo unspecified)	inconclusive: 18.4 µM [activator, partial curve]	
COc1ccc(Nc2ncnc3ccc(Br)cc23)cc1OC	inconclusive: 9.2 µM [falling, partial curve]	
CCOc1ccc(N(C)S(=O)(=O)c2ccc(C)c(C(=O)OCC(=O)c3c[nH]c4ccccc34)c2)cc1	inconclusive: 3.26 µM [activator, full curve, poor fit]	
Cc1cc(OC(C)C(=O)Nc2ccc(S(=O)(=O)Nc3onc(C)c3C)cc2)cc(C)c1Cl (stereo unspecified)	inconclusive: 20.6 µM [falling, partial curve, poor fit]	
COc1ccc2nc3c(cc2c1)Cn1c-3nc2ccccc2c1=O	inconclusive: 0.58 µM [activator, full curve]	
CCN1C(=O)/C(=C/C=C2\N(CC)c3cc(S(=O)(=O)N(C)C)ccc3N2c2ccccc2)SC1=S	inconclusive: 20.6 µM [falling, partial curve]	
Cc1cccc(N(C)C(=O)CSc2nc3ncccc3o2)c1		inactive: -8.03%
C=CCn1c(SCc2nc3sc(C(=O)O)c(C)c3c(=O)[nH]2)nnc1-c1ccccc1		inactive: 6.74%
FC(F)(F)c1cccc(N2CCN(C(=S)NCC3CCCO3)CC2)c1 (stereo unspecified)	active: 13 µM	
CCOC(=O)C(Cc1ccc(OC)c([N+](=O)[O-])c1)NC(=O)CCC(=O)Nc1ccc(C)cc1 (stereo unspecified)		inactive: -4.82%
COc1ccc(C2c3ccc4ccccc4c3Oc3ncn(CCN4CCOCC4)c(=N)c32)cc1OC (stereo unspecified)	inconclusive: 16.4 µM [falling, partial curve, poor fit]	
COc1ccc2c(c1)c1c(c(=O)n(-c3ccccc3)c(=O)n1CC(=O)Nc1ccc(C)c(C)c1)n2C		inactive: 17.9%
N#Cc1cn(-c2ccccc2)nc1-c1ccco1	inconclusive: 25.9 µM [activator, single point]	
CC(C)CCn1cnc2c(sc3nc4c(cc32)CSC(C)(C)C4)c1=O	inconclusive: 1.64 µM [activator, partial curve, poor fit]	
O=C(CCNS(=O)(=O)c1ccc(Cl)cc1)N1CCC2(O)CCCCC2C1 (stereo unspecified)	inconclusive: 11.6 µM [falling, partial curve, poor fit]	
CCCOc1ccc(-c2nnc(-c3ccncc3)o2)cc1	inconclusive: 8.2 µM [activator, partial curve]	
CC(=O)c1ccc(-n2nnnc2SCC(=O)Nc2cccc(NC(=O)c3ccco3)c2)cc1	active: 23.1 µM	
CC(C)(C)N(CC#CCC(O)(c1ccccc1)c1ccccc1)CCO		inactive: 17%
COc1ccc(NS(=O)(=O)c2cc(NC(=O)/C=C/c3cc(OC)c(OC)c(OC)c3)ccc2N2CCCCC2)cc1		inactive: -12.4%
CCOC(=O)C(=N/O)/C(C)=N/NC(=O)C(=O)Nc1cc(Cl)ccc1Cl	inconclusive: 14.6 µM [falling, partial curve]	

2 consecutive compounds out of the list so far:
SMILES	Potency	activity change, negative = inhibition
CC(C)CCn1cnc2c(sc3nc4c(cc32)CSC(C)(C)C4)c1=O	inconclusive: 1.64 µM [activator, partial curve, poor fit]	
O=C(CCNS(=O)(=O)c1ccc(Cl)cc1)N1CCC2(O)CCCCC2C1 (stereo unspecified)	inconclusive: 11.6 µM [falling, partial curve, poor fit]	

Further compounds follow:

SMILES	Potency	activity change, negative = inhibition
COc1ccc(C2Nc3ccccc3C(=O)N2Cc2ccc(C(F)(F)F)cc2)cc1COc1ccc(NC(C)=O)cc1 (stereo unspecified)	inconclusive: 32.6 µM [falling, single point]	
Cc1cc(NC(=O)CCC(=O)N(CC(C)C)C(C(=O)NC(C)(C)C)c2ccccc2Cl)no1 (stereo unspecified)	inconclusive: 29.1 µM [activator, single point]	
Cc1ccc(S(=O)(=O)Nc2ccc(S(=O)(=O)NC(C)(C)C)cc2)cc1	inconclusive: 36.6 µM [falling, partial curve, poor fit]	
O=C(c1cc(-c2ccc3c(c2)OCO3)on1)N1CCCCC1	inconclusive: 0.517 µM [activator, full curve]	
COc1ccc(CNc2ccncc2)c(OC)c1OC		inactive: -27.5%
N#C/C(=C(/O)CSc1ccccn1)c1nc2ccccc2s1	inconclusive: 29.1 µM [activator, partial curve, poor fit]	
O=C(c1ccc2c(c1)N(Cc1ccccc1F)C(=O)c1ccccc1S2=O)N1CCOCC1 (stereo unspecified)	inconclusive: 2.31 µM [falling, partial curve, poor fit]	
CC[n+]1c(-c2ccc(C)cc2)csc1Nc1c(C)n(C)n(-c2ccccc2)c1=O	inconclusive: 29.1 µM [falling, single point]	
O=C1C(Cl)=C(NCc2ccco2)C(=O)c2ccccc21		inactive: -19.8%
Cn1ccnc1C(=O)c1cc(SCC(=O)NC2CC2)nc2ccccc12	inconclusive: 29.1 µM [falling, single point]	
O=C(CN1CCC(n2nnc3cc(F)ccc32)CC1)Nc1ccc2c(c1)CCC2		inactive: 22%
O=C(Nc1c(C(=O)Nc2ccccc2F)oc2ccccc12)c1cc2ccccc2o1	inconclusive: 14.6 µM [activator, single point]	
CCC(C)(C)NC(=O)C(c1cccnc1)N(C(=O)c1csnn1)c1ccc(C)cc1 (stereo unspecified)		inactive: 1.32%
CCn1c(SCC(=O)N2CCN(c3ccc(F)cc3)CC2)nnc1-c1ccncc1	inconclusive: 3.26 µM [falling, full curve]	
CN(CCOc1ccc(Cl)cc1)c1ccc(S(=O)(=O)N2CCCCC2)cn1	inconclusive: 29.1 µM [falling, single point]	
CC(C)(C)OC(=O)NCCCCCNC(=O)c1[nH]cnc1C(=O)N[C@@H](CCCCNC(=O)OC(C)(C)C)C(=O)OC(C)(C)C	active: 23.1 µM	
Cc1ccc(N=Nc2c(N)nn(-c3ccccc3)c2N)cc1	inconclusive: 20.6 µM [activator, partial curve]	
COc1ccc(S(=O)(=O)Cc2ccc(C(=O)N3CCc4ccccc4C3)o2)cc1	inconclusive: 7.31 µM [activator, single point]	
COc1cc(F)cc(F)c1[S+](=O)([O-])N1CCN([S+](=O)([O-])c2ccc3c(c2)OCCO3)CC1		inactive: 8.12%
CC(C)CN1C(=O)c2ccc(C(=O)Nc3ccccn3)cc2C1=O	inconclusive: 16.4 µM [activator, single point]	
